Publication PMC3579733
No constants are given. Whether binding was seen depends on the method and setting. In cells and extracts the contact can be indirect. Here binding means that the protein was enriched with, or labelled near, the bait; the list need not be complete. For some of these results: No binding means not detected with the bait.

T1: CheW2 (Halobacterium salinarum R1 (DSM 671)) (UniProt Q9HQY8)
T1 sequence: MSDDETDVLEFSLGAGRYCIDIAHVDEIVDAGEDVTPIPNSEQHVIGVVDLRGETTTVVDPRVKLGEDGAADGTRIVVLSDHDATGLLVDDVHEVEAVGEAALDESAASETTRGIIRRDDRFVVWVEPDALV

T2: CheY (Halobacterium salinarum R1 (DSM 671)) (UniProt B0R4K1)
T2 sequence: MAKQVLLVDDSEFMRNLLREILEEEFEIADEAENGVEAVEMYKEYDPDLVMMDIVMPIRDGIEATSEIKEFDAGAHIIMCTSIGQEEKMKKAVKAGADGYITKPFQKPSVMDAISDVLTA

T3: CheW1 (Halobacterium salinarum R1 (DSM 671)) (UniProt Q9HQW5)
T3 sequence: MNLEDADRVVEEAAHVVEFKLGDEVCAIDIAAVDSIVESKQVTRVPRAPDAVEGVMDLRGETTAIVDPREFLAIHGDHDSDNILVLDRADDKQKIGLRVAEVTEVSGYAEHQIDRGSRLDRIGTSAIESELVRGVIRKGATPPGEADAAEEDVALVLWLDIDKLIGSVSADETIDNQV

T4: CheA (Halobacterium salinarum R1 (DSM 671)) (UniProt B0R4J9)
T4 sequence: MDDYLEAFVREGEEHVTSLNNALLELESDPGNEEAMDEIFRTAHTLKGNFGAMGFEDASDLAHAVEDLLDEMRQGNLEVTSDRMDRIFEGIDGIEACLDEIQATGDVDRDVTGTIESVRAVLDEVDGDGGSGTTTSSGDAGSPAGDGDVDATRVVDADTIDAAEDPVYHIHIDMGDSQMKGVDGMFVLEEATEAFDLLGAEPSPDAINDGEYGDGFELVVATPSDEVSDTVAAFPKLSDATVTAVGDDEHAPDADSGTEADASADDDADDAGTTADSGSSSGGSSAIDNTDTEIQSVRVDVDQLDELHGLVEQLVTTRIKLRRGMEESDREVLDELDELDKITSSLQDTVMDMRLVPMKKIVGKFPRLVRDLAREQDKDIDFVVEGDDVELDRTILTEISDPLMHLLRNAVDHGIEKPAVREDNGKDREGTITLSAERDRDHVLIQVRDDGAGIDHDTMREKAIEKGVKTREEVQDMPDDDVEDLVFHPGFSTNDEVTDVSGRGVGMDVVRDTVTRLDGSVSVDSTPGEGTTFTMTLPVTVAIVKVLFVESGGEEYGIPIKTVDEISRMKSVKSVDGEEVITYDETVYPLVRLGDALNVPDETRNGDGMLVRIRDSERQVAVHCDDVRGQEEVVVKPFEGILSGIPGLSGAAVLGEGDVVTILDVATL

T5: CheF1 (Halobacterium salinarum R1 (DSM 671)) (UniProt B0R4J3)
T5 sequence: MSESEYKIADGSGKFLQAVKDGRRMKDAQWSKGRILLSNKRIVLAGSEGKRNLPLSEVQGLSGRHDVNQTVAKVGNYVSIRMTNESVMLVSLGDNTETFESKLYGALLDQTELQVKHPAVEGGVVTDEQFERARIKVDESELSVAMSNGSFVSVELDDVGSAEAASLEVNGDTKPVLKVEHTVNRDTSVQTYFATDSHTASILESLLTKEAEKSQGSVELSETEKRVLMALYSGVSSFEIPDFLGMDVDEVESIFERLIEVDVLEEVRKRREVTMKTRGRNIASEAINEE

T6: CheB (Halobacterium salinarum R1 (DSM 671)) (UniProt B0R4K0)
T6 sequence: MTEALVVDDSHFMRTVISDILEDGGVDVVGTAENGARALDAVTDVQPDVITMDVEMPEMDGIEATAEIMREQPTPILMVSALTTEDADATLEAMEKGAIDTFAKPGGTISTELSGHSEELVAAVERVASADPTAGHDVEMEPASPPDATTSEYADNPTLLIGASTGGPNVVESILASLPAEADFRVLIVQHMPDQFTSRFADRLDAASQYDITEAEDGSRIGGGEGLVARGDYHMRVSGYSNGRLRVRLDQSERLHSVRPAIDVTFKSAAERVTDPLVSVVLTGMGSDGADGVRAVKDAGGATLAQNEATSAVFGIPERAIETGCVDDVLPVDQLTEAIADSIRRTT

T7: CheF2 (Halobacterium salinarum R1 (DSM 671)) (UniProt B0R4J4)
T7 sequence: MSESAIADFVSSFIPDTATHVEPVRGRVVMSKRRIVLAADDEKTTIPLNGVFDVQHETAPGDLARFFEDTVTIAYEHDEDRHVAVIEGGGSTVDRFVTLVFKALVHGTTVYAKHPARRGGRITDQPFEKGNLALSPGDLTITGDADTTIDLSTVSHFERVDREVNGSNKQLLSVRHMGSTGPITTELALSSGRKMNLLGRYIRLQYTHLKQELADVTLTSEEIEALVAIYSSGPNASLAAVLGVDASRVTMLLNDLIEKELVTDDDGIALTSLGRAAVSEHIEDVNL


How the values were obtained:
[1] = biological target: T1, CheW2 (Halobacterium salinarum R1 (DSM 671)); test: affinity purification with mass spectrometry; one-step and two-step bait fishing taken together (final data set; both methods applied to all baits); the place does not tell which of the two gave the result
[2] = biological target: T2, CheY (Halobacterium salinarum R1 (DSM 671)); test: as above
[3] = biological target: T3, CheW1 (Halobacterium salinarum R1 (DSM 671)); test: as above
[4] = biological target: T4, CheA (Halobacterium salinarum R1 (DSM 671)); test: affinity purification with mass spectrometry; one-step bait fishing: lysates of the bait-CBD strain (13C6-leucine) and of the bait-control strain without CBD (12C6-leucine) mixed, one cellulose column, CFE buffer (3 M KCl, 1 M NaCl, 400 mM NH4Cl, 40 mM MgCl2, 10 mM Tris/HCl pH 7.5), washes with 0.5% NP40, room temperature; SILAC, association score > 7 counts as interaction
[5] = biological target: T1, CheW2 (Halobacterium salinarum R1 (DSM 671)); test: affinity purification with mass spectrometry; two-step bait fishing: bait-CBD bound to a cellulose column and stringently washed (CFE + 1% NP40 + 20% ethylene glycol), then incubated with lysate of wild type cells (12C6-leucine); plain CBD column with 13C6-leucine lysate as control; SILAC, association score > 7 counts as interaction; only the target purified
[6] = biological target: T1, CheW2 (Halobacterium salinarum R1 (DSM 671)); test: affinity purification with mass spectrometry; comparative two-step bait fishing: CheW1 on one cellulose column with light (12C) lysate, CheW2 on a second column with heavy (13C) lysate, the second CheW as control instead of plain CBD; only the target purified
[7] = biological target: T4, CheA (Halobacterium salinarum R1 (DSM 671)); test: affinity purification with mass spectrometry; one-step and two-step bait fishing taken together (final data set; both methods applied to all baits); the place does not tell which of the two gave the result
[8] = biological target: OE4643R (Halobacterium salinarum R1 (DSM 671)); test: as above
[9] = biological target: CheD (Halobacterium salinarum R1 (DSM 671)); test: as above
[10] = biological target: T5, CheF1 (Halobacterium salinarum R1 (DSM 671)); test: as above
[11] = biological target: T6, CheB (Halobacterium salinarum R1 (DSM 671)); test: as above
[12] = biological target: T7, CheF2 (Halobacterium salinarum R1 (DSM 671)); test: as above

| binding [1] | binding [2] | binding [3] | binding [4] | binding [5] | binding [6] | binding [7] | binding [8] | binding [9] | binding [10] | binding [11] | binding [12] | Molecule |
| --- | --- | --- | --- | --- | --- | --- | --- | --- | --- | --- | --- | --- |
| no binding | binds | no binding | binds | – | – | – | – | – | – | – | – | Htr17 (receptor) |
| no binding | binds | no binding | – | – | – | – | no binding | no binding | – | – | – | Htr18 (receptor, UniProt B0R474 1-816) MALGTYVPTAIRTSLLRKAAVVIVTIMLVLVGVGVFTTQAVSTQVTEQRDTELLTSTEQEAEALEEWIGRQRSATQYLSQDNAIQSAPQADKSEVLSTRISGLTETAAALHYVNLSTDTIRASTDAAVEGDTYTSYSIPWRGEGLSFYGGGDVITSSVFNYRGTPVMAFASKQPGSDNAVFVFHSVETRGEAFSRNIDGSYTQVVDIEGTVQIAADESAISSAYGAGRDAPVIATGLTTNSGIETRDGLLVGHAKVEGTDWVLLKHAPTSNAYALEGDVQRNIVVLIVTAVAGLGALVLVIGRDALTALTDMSDRAEAIAAGDIDTAIEETTRIDEVGDLRRSFRDIQEYLQTVAGQADALAEQDFDADALDKSVPGRLGESLETMHWDLETAIADLEDAQETAEQSRKEAEQSREEAEALAAALESQAQDIRETVEHAADGDLTQRLETDTDHESMAAIATALNSLLEELEGTIHRIQRFSKDVAESSDHITTSAEEVKRASGQVSESVQEMSADARQQNGIVQDVSDEMTDLSATIEEIASSSDEVAAKSNDAVSVGQSGRARSQDAIEEMNAVDEQAKRTIAEMEALDDEMTEIGEIVTLIDDIAEQTSMLALNASIEAARAGEAGEGFAVVADEIKSLSKETTEATQEIESLIADVQDSTTDAVTDMQEMGDRLSEGKSTVTDTVETIDTIVERIEEANGGVQTINTATDEQATTTEEVVTMVDEVGSISDDTTARAEDAAAAAEEQTASLTEVTNRIQDLSDQSTDLYELLSDFTVREDHAVADGGAENTTGAFVRSASTDHSRDATHHDT |

The next lines start with the molecule.

| Molecule | binding [1] | binding [2] | binding [3] | binding [4] | binding [5] | binding [6] | binding [7] | binding [8] | binding [9] | binding [10] | binding [11] | binding [12] |
| --- | --- | --- | --- | --- | --- | --- | --- | --- | --- | --- | --- | --- |
| Htr16 (receptor) | no binding | binds | no binding | binds | – | – | – | – | – | – | – | – |
| Htr13 (receptor, UniProt B0R4N9 1-423) MTGPDNSLTDPSASPSTPVASLRPTAEQLLPQQRDQLHAFIERVLADHPDHIVDCCVEYYTNTLPNGTAAYGDLLALLAATSADADAFTAAVTAIQSPLLSGDGPTDGPPAQESVTAHARVVAEDMSALRGRVAADDATATGSEATADEAAAVAELIERAREMNQNMEEIDRLAAQQSDNTDNLKAEISDISSAIEQIAASATEVNDRSDEAQSLATDGYERAVAVVEQVEAIHDGVTEVRHQTATLQDHTEAIDDIVEVINDIADQTNLLALNASIEAARADAGGEGFAVVADEVKSLAEESKTQAEEIEERVENIQVETRNAADTLVELETETEDSLEASTSSLDTFEEIKDLVTGVSTSLDEIKSGTERQTESSEELTMMIDEAARKADTISDEVASMADANHAQLQKLEAYQSESDQSR | – | no binding | binds | – | binds | binds | no binding | no binding | no binding | – | – | – |
| Car (receptor, UniProt B0R9Z1 1-452) MDPASSDMGGEATGEHLADELCEAYLGDNEDDGGDELQRLSRERDFWKHMFNQLVAEYPEGILITAADGTVTHWNERFSDHMKMARSDALGEDASDVFSTAEESETLPEAVVRTGDTVEEEEPHDVPTDSLCQYHGVPLRAPTGDVVGSFGVVPDISEKVKNQRELHDLHETVSSNVGEHLSELSESIDEVGSFAEETEAFAGEEIERMEGVADEVSNQSATIEEIASSAEEVSQASQRAQDRATEGEQTAETAIDRMGAVQESAERVNDTIDGLTSQADEMSEIIDAINDIADQTNMLALNASIEAARAGEKGEGFAVVADEVKSLAEESQERADEIEQMIVEMVETTDQTADRIGQTTTEIEEAITAVRETLDSLQEIRKAVDETATGVKEVAGATDDHAASTEQVAATTDEAVDKLTELEDRLDNLSQIASEQHDRVAEIEDMVDELVE | – | no binding | no binding | – | binds | binds | no binding | no binding | no binding | – | – | – |
| CheC2 (protein, UniProt Q9HPJ6 1-196) MSATIELRAFRDINELADASAATVRGHIEQLAGVEAAVSVTGLTFLAPEDLGQHLGTAQTYAASVPLESRPHGVFCLNLGDTGGAALAEQMTGTEIAGTLSNMQESALKELMNILASGFLDGIANSLGIEIIHGPPTVYHDSGPVIADTLRPSGTEQPLLIMVNLGVELPALTETPVTFYLIPSADEFASLLNDLS | – | – | – | – | – | – | – | – | binds | binds | no binding | binds |
